In paper PMC3430618 one finds binding data, which are given here for two substances.

The chains behind the UniProt entries cited, without tags or fusion partners.
UniProt Q60598: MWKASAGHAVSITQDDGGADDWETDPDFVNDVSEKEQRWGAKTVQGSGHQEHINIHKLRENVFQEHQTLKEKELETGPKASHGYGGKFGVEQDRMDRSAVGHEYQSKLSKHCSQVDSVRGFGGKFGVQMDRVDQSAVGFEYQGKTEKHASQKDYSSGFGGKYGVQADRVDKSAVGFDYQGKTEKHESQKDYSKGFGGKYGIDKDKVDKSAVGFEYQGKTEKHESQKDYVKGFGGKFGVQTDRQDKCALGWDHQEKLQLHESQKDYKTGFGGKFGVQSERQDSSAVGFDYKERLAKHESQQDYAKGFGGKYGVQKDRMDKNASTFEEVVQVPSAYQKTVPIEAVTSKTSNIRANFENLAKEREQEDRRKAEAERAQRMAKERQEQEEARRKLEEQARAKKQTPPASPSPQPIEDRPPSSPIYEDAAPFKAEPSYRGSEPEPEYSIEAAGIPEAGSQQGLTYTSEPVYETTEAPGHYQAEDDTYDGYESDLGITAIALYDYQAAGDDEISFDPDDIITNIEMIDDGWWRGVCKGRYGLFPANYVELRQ
UniProt P34152: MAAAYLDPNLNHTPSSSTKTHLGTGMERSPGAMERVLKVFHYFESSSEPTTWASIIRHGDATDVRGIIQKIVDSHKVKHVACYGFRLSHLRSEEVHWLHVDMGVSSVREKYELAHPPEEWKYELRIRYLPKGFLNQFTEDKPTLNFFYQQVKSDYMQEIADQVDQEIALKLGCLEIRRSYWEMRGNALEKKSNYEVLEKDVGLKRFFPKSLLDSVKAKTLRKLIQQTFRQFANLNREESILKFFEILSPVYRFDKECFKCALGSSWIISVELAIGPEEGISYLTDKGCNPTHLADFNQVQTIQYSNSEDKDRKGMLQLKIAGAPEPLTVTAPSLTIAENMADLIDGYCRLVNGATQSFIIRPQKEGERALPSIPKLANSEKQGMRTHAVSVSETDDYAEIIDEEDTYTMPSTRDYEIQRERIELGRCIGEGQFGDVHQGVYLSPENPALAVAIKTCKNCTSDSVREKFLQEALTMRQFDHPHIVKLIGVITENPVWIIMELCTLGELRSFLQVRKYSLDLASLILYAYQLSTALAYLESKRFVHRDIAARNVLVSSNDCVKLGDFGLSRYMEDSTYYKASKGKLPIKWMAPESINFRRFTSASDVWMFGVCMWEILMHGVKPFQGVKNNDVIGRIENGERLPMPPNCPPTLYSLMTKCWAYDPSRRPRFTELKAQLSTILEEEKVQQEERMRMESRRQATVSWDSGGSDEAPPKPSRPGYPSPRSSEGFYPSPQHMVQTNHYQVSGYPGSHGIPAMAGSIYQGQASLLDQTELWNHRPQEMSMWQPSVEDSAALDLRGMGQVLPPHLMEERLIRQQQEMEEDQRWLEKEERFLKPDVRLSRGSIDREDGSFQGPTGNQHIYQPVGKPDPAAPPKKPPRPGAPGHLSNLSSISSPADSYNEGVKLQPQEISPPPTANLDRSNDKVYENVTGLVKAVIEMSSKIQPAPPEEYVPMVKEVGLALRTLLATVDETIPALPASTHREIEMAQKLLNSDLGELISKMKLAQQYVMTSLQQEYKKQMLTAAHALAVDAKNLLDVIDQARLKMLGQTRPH

Results are given in words; binding and its absence hold for the method and conditions named. Binding seen in cells or lysates may run through a third protein. Some results given as binding are weak or reduced against the parent protein; the word gives no strength.

Experiment [1] deals with cortactin, endogenous in MEFs (mouse (endogenous in MEFs)) (UniProt Q60598). Briefly: co-IP; lysates of MEFs or GFP-FAK reconstituted FAK-/- MEFs held in suspension or replated on FN (30 and 60 min); Extraction Buffer with 1% Triton X-100, 0.5% sodium deoxycholate, 0.1% SDS, cytochalasin-D and latrunculin-A; IP with antibodies to FAK, cortactin or GFP, 2 h at 4°C; immunoblotting.

The target of experiment [2] is FAK, endogenous in MEFs (mouse (endogenous in MEFs)) (UniProt P34152). Briefly: co-IP; as a2, lysates of cells replated onto FN for 30 min.
The target is the same in experiment [3]. Briefly: co-IP; lysates of MEFs or GFP-FAK reconstituted FAK-/- MEFs held in suspension or replated on FN (30 and 60 min); Extraction Buffer with 1% Triton X-100, 0.5% sodium deoxycholate, 0.1% SDS, cytochalasin-D and latrunculin-A; IP with antibodies to FAK, cortactin or GFP, 2 h at 4°C; immunoblotting.

As to “FAK, endogenous in MEFs (from UniProt P34152 1-1052)”, the binding entry in experiment [1] is listed as “binds”. On to “cortactin, endogenous in MEFs (from UniProt Q60598 1-546)”, for which the binding entry in experiment [2] was “binds weakly”; in experiment [3] it was “binds”.
